# Reference: the supplement of paper PMC8728848
# The other results are listed elsewhere or left out.
# How the values were obtained:
# Test in all cases: glycan array binding signal (z-score within array); higher = stronger binding
# Conditions in all cases: glycan notation: IUPAC condensed, linker removed; mutation: E321K
# [1] = molecular target: Neu5Ac(a2-3)Gal(b1-3)[Fuc(a1-4)]GlcNAc
# In short: (§1)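 Glycan array binding is given as a within-array Z-score, which can be read as non-binding when negative. The arrays, 3228 of them, came from the Consortium for Functional Glycomics database and were retained only where the protein sequence was available. Z-scores were averaged across arrays of the same protein sequence at different concentrations or buffers and across linkers.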
# [2] = molecular target: Neu5Ac(a2-3)Gal(b1-3)[Fuc(a1-4)]GlcNAc(b1-3)Gal(b1-4)[Fuc(a1-3)]GlcNAc
# In short: as §1
# [3] = molecular target: Neu5Ac(a2-3)Gal(b1-3)[Neu5Ac(a2-3)Gal(b1-4)]GlcNAc
# In short: as §1
# [4] = molecular target: Neu5Ac(a2-3)Gal(b1-3)[Neu5Ac(a2-6)]GalNAc
# In short: as §1
# Neu5Ac(a2-3)Gal(b1-4)Glc = molecular target: Neu5Ac(a2-3)Gal(b1-4)Glc
# In short: as §1
# [5] = molecular target: Neu5Ac(a2-3)Gal(b1-4)GlcNAc
# In short: as §1
# [6] = molecular target: Neu5Ac(a2-3)Gal(b1-4)GlcNAc(b1-2)Man(a1-3)[GlcNAc(b1-2)Man(b1-4)GlcNAc(b1-2)Man(a1-6)]Man(b1-4)GlcNAc(b1-4)GlcNAc
# In short: as §1
# [7] = molecular target: Neu5Ac(a2-3)Gal(b1-4)GlcNAc(b1-2)Man(a1-3)[Neu5Ac(a2-6)Gal(b1-4)GlcNAc(b1-2)Man(a1-6)]Man(b1-4)GlcNAc(b1-4)GlcNAc
# In short: as §1
# [8] = molecular target: Neu5Ac(a2-3)Gal(b1-4)GlcNAc(b1-3)Gal(b1-3)GlcNAc
# In short: as §1
# [9] = molecular target: Neu5Ac(a2-3)Gal(b1-4)GlcNAc(b1-3)Gal(b1-4)GlcNAc
# In short: as §1
# [10] = molecular target: Neu5Ac(a2-3)Gal(b1-4)GlcNAc(b1-3)Gal(b1-4)GlcNAc(b1-3)Gal(b1-4)GlcNAc
# In short: as §1
# [11] = molecular target: Neu5Ac(a2-3)Gal(b1-4)GlcNAc(b1-3)Gal(b1-4)[Fuc(a1-3)]GlcNAc
# In short: as §1
# [12] = molecular target: Neu5Ac(a2-3)Gal(b1-4)GlcNAc(b1-6)[Gal(b1-3)]GalNAc
# In short: as §1
# [13] = molecular target: Neu5Ac(a2-3)Gal(b1-4)GlcNAc(b1-6)[Neu5Ac(a2-3)Gal(b1-3)]GalNAc
# In short: as §1
# [14] = molecular target: Neu5Ac(a2-3)Gal(b1-4)GlcNAc6S
# In short: as §1
# [15] = molecular target: Neu5Ac(a2-3)Gal(b1-4)[Fuc(a1-3)]GlcNAc
# In short: as §1
# [16] = molecular target: Neu5Ac(a2-3)Gal(b1-4)[Fuc(a1-3)]GlcNAc(b1-3)Gal
# In short: as §1
# [17] = molecular target: Neu5Ac(a2-3)Gal(b1-4)[Fuc(a1-3)]GlcNAc(b1-3)Gal(b1-4)GlcNAc
# In short: as §1
# [18] = molecular target: Neu5Ac(a2-3)Gal(b1-4)[Fuc(a1-3)]GlcNAc(b1-3)Gal(b1-4)[Fuc(a1-3)]GlcNAc(b1-3)Gal(b1-4)[Fuc(a1-3)]GlcNAc
# In short: as §1
# [19] = molecular target: Neu5Ac(a2-3)Gal(b1-4)[Fuc(a1-3)]GlcNAc(b1-6)[Gal(b1-3)]GalNAc
# In short: as §1
# [20] = molecular target: Neu5Ac(a2-3)Gal(b1-4)[Fuc(a1-3)]GlcNAc6S
# In short: as §1
# [21] = molecular target: Neu5Ac(a2-3)Gal6S(b1-4)GlcNAc
# In short: as §1
# [22] = molecular target: Neu5Ac(a2-3)Gal6S(b1-4)[Fuc(a1-3)]GlcNAc
# In short: as §1
# Neu5Ac(a2-3)GalNAc = molecular target: Neu5Ac(a2-3)GalNAc
# In short: as §1
# [23] = molecular target: Neu5Ac(a2-3)GalNAc(b1-4)GlcNAc
# In short: as §1
# [24] = molecular target: Neu5Ac(a2-3)[GalNAc(b1-4)]Gal(b1-4)Glc
# In short: as §1
# [25] = molecular target: Neu5Ac(a2-3)[GalNAc(b1-4)]Gal(b1-4)GlcNAc
# In short: as §1
# [26] = molecular target: Neu5Ac(a2-3)[Neu5Ac(a2-6)]GalNAc
# In short: as §1
# Neu5Ac(a2-6)Gal = molecular target: Neu5Ac(a2-6)Gal
# In short: as §1
# Neu5Ac(a2-6)Gal(b1-4)Glc = molecular target: Neu5Ac(a2-6)Gal(b1-4)Glc
# In short: as §1
# [27] = molecular target: Neu5Ac(a2-6)Gal(b1-4)GlcNAc
# In short: as §1
# [28] = molecular target: Neu5Ac(a2-6)Gal(b1-4)GlcNAc(b1-2)Man(a1-3)[Gal(b1-4)GlcNAc(b1-2)Man(a1-6)]Man(b1-4)GlcNAc(b1-4)GlcNAc
# In short: as §1
# [29] = molecular target: Neu5Ac(a2-6)Gal(b1-4)GlcNAc(b1-2)Man(a1-3)[GlcNAc(b1-2)Man(a1-6)]Man(b1-4)GlcNAc(b1-4)GlcNAc
# In short: as §1
# [30] = molecular target: Neu5Ac(a2-6)Gal(b1-4)GlcNAc(b1-2)Man(a1-3)[GlcNAc(b1-2)Man(b1-4)GlcNAc(b1-2)Man(a1-6)]Man(b1-4)GlcNAc(b1-4)GlcNAc
# In short: as §1
# [31] = molecular target: Neu5Ac(a2-6)Gal(b1-4)GlcNAc(b1-2)Man(a1-3)[Neu5Ac(a2-6)Gal(b1-4)GlcNAc(b1-2)Man(a1-6)]Man(b1-4)GlcNAc(b1-4)GlcNAc
# In short: as §1
# [32] = molecular target: Neu5Ac(a2-6)Gal(b1-4)GlcNAc(b1-2)Man(a1-6)[Gal(b1-4)GlcNAc(b1-2)Man(a1-3)]Man(b1-4)GlcNAc(b1-4)GlcNAc
# In short: as §1
# [33] = molecular target: Neu5Ac(a2-6)Gal(b1-4)GlcNAc(b1-2)Man(a1-6)[GlcNAc(b1-2)Man(a1-3)]Man(b1-4)GlcNAc(b1-4)GlcNAc
# In short: as §1
# [34] = molecular target: Neu5Ac(a2-6)Gal(b1-4)GlcNAc(b1-3)Gal(b1-4)GlcNAc
# In short: as §1
# [35] = molecular target: Neu5Ac(a2-6)Gal(b1-4)GlcNAc(b1-3)Gal(b1-4)[Fuc(a1-3)]GlcNAc(b1-3)Gal(b1-4)[Fuc(a1-3)]GlcNAc
# In short: as §1
# [36] = molecular target: Neu5Ac(a2-6)Gal(b1-4)GlcNAc6S
# In short: as §1
# Neu5Ac(a2-6)GalNAc = molecular target: Neu5Ac(a2-6)GalNAc
# In short: as §1
# [37] = molecular target: Neu5Ac(a2-6)GalNAc(b1-4)GlcNAc
# In short: as §1
# Neu5Ac(a2-8)Neu5Ac = molecular target: Neu5Ac(a2-8)Neu5Ac
# In short: as §1
# [38] = molecular target: Neu5Ac(a2-8)Neu5Ac(a2-3)Gal(b1-4)Glc
# In short: as §1
# [39] = molecular target: Neu5Ac(a2-8)Neu5Ac(a2-3)[GalNAc(b1-4)]Gal(b1-4)Glc
# In short: as §1
# [40] = molecular target: Neu5Ac(a2-8)Neu5Ac(a2-8)Neu5Ac
# In short: as §1
# [41] = molecular target: Neu5Ac(a2-8)Neu5Ac(a2-8)Neu5Ac(a2-3)Gal(b1-4)Glc
# In short: as §1
# [42] = molecular target: Neu5Ac(a2-8)Neu5Ac(a2-8)Neu5Ac(a2-3)[GalNAc(b1-4)]Gal(b1-4)Glc
# In short: as §1
# [43] = molecular target: Neu5Ac(a2-8)Neu5Ac(a2-8)Neu5Ac(a2-8)Neu5Ac(a2-3)[GalNAc(b1-4)]Gal(b1-4)Glc
# In short: as §1
# [44] = molecular target: Neu5Ac(b2-6)Gal(b1-4)GlcNAc
# In short: as §1
# Neu5Ac(b2-6)GalNAc = molecular target: Neu5Ac(b2-6)GalNAc
# In short: as §1
# [45] = molecular target: Neu5Ac9Ac(a2-6)Gal(b1-4)GlcNAc
# In short: as §1
# [46] = molecular target: Neu5Gc(a2-3)Gal(b1-3)GlcNAc
# In short: as §1
# [47] = molecular target: Neu5Gc(a2-3)Gal(b1-3)[Fuc(a1-4)]GlcNAc
# In short: as §1
# Neu5Gc(a2-3)Gal(b1-4)Glc = molecular target: Neu5Gc(a2-3)Gal(b1-4)Glc
# In short: as §1
# [48] = molecular target: Neu5Gc(a2-3)Gal(b1-4)GlcNAc
# In short: as §1
# [49] = molecular target: Neu5Gc(a2-3)Gal(b1-4)[Fuc(a1-3)]GlcNAc
# In short: as §1
# [50] = molecular target: Neu5Gc(a2-6)Gal(b1-4)GlcNAc
# In short: as §1
# Neu5Gc(a2-6)GalNAc = molecular target: Neu5Gc(a2-6)GalNAc
# In short: as §1
# [51] = molecular target: Neu5Gc(b2-6)Gal(b1-4)GlcNAc
# In short: as §1
binder,measurement,setting,value
Surfactant Protein D (Human); Neck + Carbohydrate Recognition Domain (NCRD) (Homo sapiens) (protein) MLLFLLSALVLLTQPLGYLEAEMKTYSHRTMPSACTLVMCSSVESGLPGRDRDGREGPRGEKGDPGLPGAAGQAGMPGQAGPVGPKGDNGSVGEPGPKGDTGPSGPPGPPGVPGPAGREGALGKQGNIGPQGKPGPKGEAGPKGEVGAPGMQGSAGARGLAGPKGERGVPGERGVPGNTGAAGSAGAMGPQGSPGARGPPGLKGDKGIPGDKGAKGESGLPDVASLRQQVEALQGQVQHLQAAFSQYKKVELFPNGQSVGEKIFKTAQFVKPFTEAQLLCTQAGGQLASPRSAAENAALQQLVVAKNEAAFLSMTDSKTEGKFTYPTGESLVYSNWAPGKPNDDGGSEDCVEIFTNGKWNDRACGEKRLVVCEF,glycan array binding signal (z-score),[1],0.651
same,glycan array binding signal (z-score),[2],-0.389
same,glycan array binding signal (z-score),[3],0.159
same,glycan array binding signal (z-score),[4],1.25
same,glycan array binding signal (z-score),Neu5Ac(a2-3)Gal(b1-4)Glc,-1.12
same,glycan array binding signal (z-score),[5],2.03
same,glycan array binding signal (z-score),[6],-0.987
same,glycan array binding signal (z-score),[7],-0.766
same,glycan array binding signal (z-score),[8],-0.578
same,glycan array binding signal (z-score),[9],0.019
same,glycan array binding signal (z-score),[10],0.299
same,glycan array binding signal (z-score),[11],0.062
same,glycan array binding signal (z-score),[12],-0.045
same,glycan array binding signal (z-score),[13],-1
same,glycan array binding signal (z-score),[14],-0.383
same,glycan array binding signal (z-score),[15],0.494
same,glycan array binding signal (z-score),[16],-0.166
same,glycan array binding signal (z-score),[17],0.33
same,glycan array binding signal (z-score),[18],-0.677
same,glycan array binding signal (z-score),[19],0.318
same,glycan array binding signal (z-score),[20],-0.18
same,glycan array binding signal (z-score),[21],0.549
same,glycan array binding signal (z-score),[22],0.111
same,glycan array binding signal (z-score),Neu5Ac(a2-3)GalNAc,-0.746
same,glycan array binding signal (z-score),[23],3.92
same,glycan array binding signal (z-score),[24],-0.858
same,glycan array binding signal (z-score),[25],0.182
same,glycan array binding signal (z-score),[26],1.14
same,glycan array binding signal (z-score),Neu5Ac(a2-6)Gal,-0.418
same,glycan array binding signal (z-score),Neu5Ac(a2-6)Gal(b1-4)Glc,-0.337
same,glycan array binding signal (z-score),[27],0.405
same,glycan array binding signal (z-score),[28],-0.145
same,glycan array binding signal (z-score),[29],0.141
same,glycan array binding signal (z-score),[30],5.34
same,glycan array binding signal (z-score),[31],-0.334
same,glycan array binding signal (z-score),[32],-0.67
same,glycan array binding signal (z-score),[33],-0.556
same,glycan array binding signal (z-score),[34],-0.587
same,glycan array binding signal (z-score),[35],-0.093
same,glycan array binding signal (z-score),[36],1.05
same,glycan array binding signal (z-score),Neu5Ac(a2-6)GalNAc,-0.188
same,glycan array binding signal (z-score),[37],0.412
same,glycan array binding signal (z-score),Neu5Ac(a2-8)Neu5Ac,0.491
same,glycan array binding signal (z-score),[38],-0.938
same,glycan array binding signal (z-score),[39],-0.563
same,glycan array binding signal (z-score),[40],-0.381
same,glycan array binding signal (z-score),[41],-0.475
same,glycan array binding signal (z-score),[42],0.225
same,glycan array binding signal (z-score),[43],-0.482
same,glycan array binding signal (z-score),[44],-0.057
same,glycan array binding signal (z-score),Neu5Ac(b2-6)GalNAc,3.67
same,glycan array binding signal (z-score),[45],-0.118
same,glycan array binding signal (z-score),[46],0.207
same,glycan array binding signal (z-score),[47],-0.22
same,glycan array binding signal (z-score),Neu5Gc(a2-3)Gal(b1-4)Glc,-0.993
same,glycan array binding signal (z-score),[48],0.239
same,glycan array binding signal (z-score),[49],-0.117
same,glycan array binding signal (z-score),[50],-0.918
same,glycan array binding signal (z-score),Neu5Gc(a2-6)GalNAc,0.65
same,glycan array binding signal (z-score),[51],-0.334

# Looked up one by one from above, 3 records:
binder,measurement,setting,value
Surfactant Protein D (Human); Neck + Carbohydrate Recognition Domain (NCRD) (Homo sapiens) (protein) MLLFLLSALVLLTQPLGYLEAEMKTYSHRTMPSACTLVMCSSVESGLPGRDRDGREGPRGEKGDPGLPGAAGQAGMPGQAGPVGPKGDNGSVGEPGPKGDTGPSGPPGPPGVPGPAGREGALGKQGNIGPQGKPGPKGEAGPKGEVGAPGMQGSAGARGLAGPKGERGVPGERGVPGNTGAAGSAGAMGPQGSPGARGPPGLKGDKGIPGDKGAKGESGLPDVASLRQQVEALQGQVQHLQAAFSQYKKVELFPNGQSVGEKIFKTAQFVKPFTEAQLLCTQAGGQLASPRSAAENAALQQLVVAKNEAAFLSMTDSKTEGKFTYPTGESLVYSNWAPGKPNDDGGSEDCVEIFTNGKWNDRACGEKRLVVCEF,glycan array binding signal (z-score),Neu5Ac(b2-6)GalNAc,3.67
same,glycan array binding signal (z-score),[10],0.299
same,glycan array binding signal (z-score),[38],-0.938
